# Data reported in patent publication US20090191185A1, “Reducing Cancer Cell Invasion Using an Inhibitor of Toll Like Receptor Signaling” (THE UAB RESEARCH FOUNDATION, priority 2006, published 2009).
# “Also recorded” adds a separate entry of the source. At least one compound was matched to its structure with a doubt left.
# Test system: TLR9 expression in LnCaP cells
# Test: TLR9 Western blot in LnCaP cells
# Type: cell-based, human
# Details: 10^−8 or 10^−11 M; 24 h
compound,measurement,value
"C[C@]12CC[C@@H]3c4ccc(O)cc4CC[C@H]3[C@@H]1CC[C@@H]2O [estradiol, β-estradiol]",TLR9 expression in LnCaP cells (Western blot),up-regulated TLR9 expression; also recorded: stimulates TLR9 expression
